Reference: article PMC4561382, “Aven recognition of RNA G-quadruplexes regulates translation of the mixed lineage leukemia protooncogenes”
Where cells or extracts were used, other partners may take part. For some of these results: No signal at the amounts used counts as a negative. For some of these results: At least one verdict was read from the data and is not stated in words by the source. For some of these results: Tags and fusion partners may be left off the protein sequences shown. For some of these results: Construct, isoform or probe ends are uncertain for at least one entry.

Tests used:
Assay in all cases: pull-down
[1] = molecular target: Aven (endogenous) (human (HEK293T cells)) (UniProt Q9NQS1); settings: increasing NaCl washes; RNA folded in 10 mM Tris-acetate pH 7.7, 200 mM K-acetate, 5 mM Mg-acetate (75 C 10 min, 21 C 5 min); peptide assay 1 h at room temperature, washes in this buffer; protein in an extract; label: 3' biotin
[2] = molecular target: FLAG-Aven (human) (UniProt Q9NQS1); settings: RNA folded in 10 mM Tris-acetate pH 7.7, 200 mM K-acetate, 5 mM Mg-acetate (75 C 10 min, 21 C 5 min); peptide assay 1 h at room temperature, washes in this buffer; protein in a lysate after overexpression; residues 1-362; protein details: FLAG; label: 3' biotin
[3] = molecular target: T1, FLAG-AvenΔRGG del1-73 (human) (UniProt Q9NQS1); settings: RNA folded in 10 mM Tris-acetate pH 7.7, 200 mM K-acetate, 5 mM Mg-acetate (75 C 10 min, 21 C 5 min); peptide assay 1 h at room temperature, washes in this buffer; protein in a lysate after overexpression; residues 74-362; protein details: FLAG; label: 3' …
T1 sequence (looked up): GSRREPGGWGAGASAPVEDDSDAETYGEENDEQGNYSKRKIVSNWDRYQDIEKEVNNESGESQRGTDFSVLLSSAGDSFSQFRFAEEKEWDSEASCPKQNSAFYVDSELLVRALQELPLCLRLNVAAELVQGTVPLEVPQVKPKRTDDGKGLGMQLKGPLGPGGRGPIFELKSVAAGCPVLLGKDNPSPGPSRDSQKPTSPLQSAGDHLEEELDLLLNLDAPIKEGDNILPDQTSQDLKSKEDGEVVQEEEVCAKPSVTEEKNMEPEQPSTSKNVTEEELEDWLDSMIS

[4] = molecular target: Aven (endogenous, hypomethylated) (human (HEK293T cells)) (UniProt Q9NQS1); settings: PRMT1-depleted cells, bound equally well as control; RNA folded in 10 mM Tris-acetate pH 7.7, 200 mM K-acetate, 5 mM Mg-acetate (75 C 10 min, 21 C 5 min); peptide assay 1 h at room temperature, washes in this buffer; protein in an extract; label: 3' biotin

CCAGCGGGGCCGGGGACGGGGUCGGGGCCGGGGCUGGGGCCCGA [MLL4 G4 (267-310)]
binding result [1]: binds
binding result [2]: binds
binding result [3]: no binding

GCUGCGGUGUGGAAGGAGUGGUCGGGUUGCGCAGCG [sc1 G4 (biotin)]
binding result [1]: binds
binding result [4]: binds
binding result [2]: binds
binding result [3]: no binding

GCUGCAAUGUGGAAAAAGUGGUCGGGUUGCGCAGCG [sc1 G4m (biotin)]
binding result [1]: no binding

CGGCAAAAAGCAGCGGGGCUAAAAUUCCAGGGGGAGCGG [MLL1 G4m]
binding result [1]: no binding

CGGCGGGAAGCAGCGGGGCUGGGGUUCCAGGGGGAGCGG [MLL1 G4 (220-258)]
binding result [1]: binds
binding result [2]: binds
binding result [3]: no binding

CCAGCAAAACCGGGGACGGGGUCAAAACCGGGGCUGGGGCCCGA [MLL4 G4m]
binding result [1]: no binding
